According to publication PMC11067709 (Clinical and Translational Science, 2024):

Experiment: clinical
Conditions: male, human, plasma, po, 500 mg, 5 days, Arm C; for Cmax: C max,ss; for Tmax: T max,ss, median [minimum–maximum]

COc1ccc2cc([C@H](C)C(=O)O)ccc2c1 [Naproxen]
AUC (AUCτ,ss, combination: naproxen 500 mg BID + fexuprazan 40 mg BID, mean ± SD): 907 ± 111 µg·h/mL
Cmax (combination: naproxen 500 mg BID + fexuprazan 40 mg BID, mean ± SD): 114 ± 12.9 µg/mL
Cmax (monotherapy: naproxen 500 mg BID, mean ± SD): 104 ± 10.8 µg/mL
Tmax (combination: naproxen 500 mg BID + fexuprazan 40 mg BID): 1.5 h
Tmax (monotherapy: naproxen 500 mg BID): 3 h
